Results deposited as PubChem BioAssay AID1259425 (University of Nebraska Medical Center, 2018)
Screen: 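Compare each knockdown with KSR1 silencing using changes in marker transcripts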 (primary screen). System: HCT116 human colon cancer cells. Reagents: siRNA pool against human genes, 50 nM siRNA. Measured: 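mRNA of six signature genes measured together by branched-DNA assay after 50 nM siRNA pool, blank removed, divided by geometric mean of two housekeeping genes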. Reading the numbers: BNIP3L mRNA: higher = more BNIP3L transcript after knockdown; NDRG1 mRNA: higher = more NDRG1 transcript after knockdown.
Shown is a random part of about 14,000 reagents. Further read-outs or replicates are left out here. Not given: the time to read-out.

Depletion of GPAA1 (glycosylphosphatidylinositol anchor attachment 1) gave: BNIP3L mRNA, set 1 = 0.194; NDRG1 mRNA, set 1 = 0.106.
DOCK8 (dedicator of cytokinesis 8) scored BNIP3L mRNA, set 1 = 0.17; NDRG1 mRNA, set 1 = 0.504.
Knock-down of ARMCX3 (armadillo repeat containing X-linked 3) came out at: BNIP3L mRNA, set 1 = 0.071; NDRG1 mRNA, set 1 = 0.288.
With knock-down of GAGE6 (G antigen 6) the results were BNIP3L mRNA, set 1 = 0.0978; NDRG1 mRNA, set 1 = 0.112.
After knock-down of TEX11 (testis expressed 11), the screen gave BNIP3L mRNA, set 1 = 0.368; NDRG1 mRNA, set 1 = 0.671.
Depletion of CEP104 (centrosomal protein 104) came out at: BNIP3L mRNA, set 1 = 0.0389; NDRG1 mRNA, set 1 = 0.126.
For SLC25A23, the entry reads BNIP3L mRNA, set 1 = 0.0412; NDRG1 mRNA, set 1 = 0.233.
After knock-down of TSEN34 (tRNA splicing endonuclease subunit 34), the record shows BNIP3L mRNA, set 1 = 0.15; NDRG1 mRNA, set 1 = 0.241.
ANKRD10 (ankyrin repeat domain 10) showed BNIP3L mRNA, set 1 = 0.146; NDRG1 mRNA, set 1 = 0.482.
CCNB1 (cyclin B1) scored BNIP3L mRNA, set 1 = 0.148; NDRG1 mRNA, set 1 = 0.153.
Against TRIM13 (tripartite motif containing 13), the entry reads BNIP3L mRNA, set 1 = 0.0762; NDRG1 mRNA, set 1 = 0.101.
For CHGB (chromogranin B) the deposit lists BNIP3L mRNA, set 1 = 0.0518; NDRG1 mRNA, set 1 = 0.0822.
After knock-down of GFRA4 (GDNF family receptor alpha 4) the results were BNIP3L mRNA, set 1 = 0.124; NDRG1 mRNA, set 1 = 0.496.
After knock-down of KAZALD1 (Kazal type serine peptidase inhibitor domain 1), the screen gave BNIP3L mRNA, set 1 = 0.129; NDRG1 mRNA, set 1 = 0.227.
For GRIK1 (glutamate ionotropic receptor kainate type subunit 1), the values are BNIP3L mRNA, set 1 = 0.155; NDRG1 mRNA, set 1 = 0.154.
ST14 (ST14 transmembrane serine protease matriptase) scored BNIP3L mRNA, set 1 = 0.135; NDRG1 mRNA, set 1 = 0.168.
After knock-down of NBPF14 (NBPF member 14) the results were BNIP3L mRNA, set 1 = 0.114; NDRG1 mRNA, set 1 = 0.188.
Knock-down of CDC25C (cell division cycle 25C) resulted in: BNIP3L mRNA, set 1 = 0.137; NDRG1 mRNA, set 1 = 0.307.
GJA5 (gap junction protein alpha 5) gave BNIP3L mRNA, set 1 = 0.0533; NDRG1 mRNA, set 1 = 0.117.
For CD247 (CD247 molecule), the entry reads BNIP3L mRNA, set 1 = 0.0852; NDRG1 mRNA, set 1 = 0.417.
PARP3 (poly(ADP-ribose) polymerase family member 3) gave BNIP3L mRNA, set 1 = 0.059; NDRG1 mRNA, set 1 = 0.2.
Silencing of RORA (RAR related orphan receptor A) came out at: BNIP3L mRNA, set 1 = 0.0708; NDRG1 mRNA, set 1 = 0.2.
HIVEP1 (HIVEP zinc finger 1) scored BNIP3L mRNA, set 1 = 0.14; NDRG1 mRNA, set 1 = 0.551.
CNIH4 (cornichon family member 4) scored BNIP3L mRNA, set 1 = 0.136; NDRG1 mRNA, set 1 = 0.101.
Depletion of LAT (linker for activation of T cells) came out at: BNIP3L mRNA, set 1 = 0.0545; NDRG1 mRNA, set 1 = 0.368.
TRPM1 showed BNIP3L mRNA, set 1 = 0.093; NDRG1 mRNA, set 1 = 0.109.
RFC1 (replication factor C subunit 1) scored BNIP3L mRNA, set 1 = 0.0679; NDRG1 mRNA, set 1 = 0.108.
After knock-down of PCDHA5 (protocadherin alpha 5), the record shows BNIP3L mRNA, set 1 = 0.0769; NDRG1 mRNA, set 1 = 0.0852.

Sorted by “BNIP3L mRNA, set 1” (ascending): some entries from above.
LAT (linker for activation of T cells) → BNIP3L mRNA, set 1 = 0.0545; NDRG1 mRNA, set 1 = 0.368
CNIH4 (cornichon family member 4) → BNIP3L mRNA, set 1 = 0.136; NDRG1 mRNA, set 1 = 0.101
HIVEP1 (HIVEP zinc finger 1) → BNIP3L mRNA, set 1 = 0.14; NDRG1 mRNA, set 1 = 0.551
